Assay results reported in article PMC8759595.
These are yes or no findings as the source states them, for the method shown. Binding seen in cells or lysates may run through a third protein. A result given as binding can be weak or reduced; the word gives no strength. Sequences can lack the tags named with a protein.

Target: T1, Myc-ACBD5 S259A (UniProt Q5T8D3)
T1 sequence: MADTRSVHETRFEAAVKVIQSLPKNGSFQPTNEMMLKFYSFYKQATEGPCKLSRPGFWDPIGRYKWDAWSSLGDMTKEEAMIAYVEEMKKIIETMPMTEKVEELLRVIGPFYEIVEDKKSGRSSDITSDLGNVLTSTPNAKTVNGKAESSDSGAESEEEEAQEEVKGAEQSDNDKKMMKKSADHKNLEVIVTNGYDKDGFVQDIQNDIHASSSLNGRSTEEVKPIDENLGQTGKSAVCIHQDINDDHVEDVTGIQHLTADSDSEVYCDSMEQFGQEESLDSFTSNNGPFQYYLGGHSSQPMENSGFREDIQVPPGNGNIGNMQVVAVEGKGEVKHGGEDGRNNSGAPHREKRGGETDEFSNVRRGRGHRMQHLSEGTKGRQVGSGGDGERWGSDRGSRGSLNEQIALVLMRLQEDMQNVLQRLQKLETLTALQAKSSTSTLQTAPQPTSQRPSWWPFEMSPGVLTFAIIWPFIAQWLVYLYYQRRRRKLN
Experiment: co-IP; Myc-ACBD5 constructs or Myc-VAPB in COS-7 lysates (10 mM Tris-HCl pH 7.4, 150 mM NaCl, 0.5 mM EDTA, 0.5% NP-40, phosphatase inhibitor), Myc-TRAP magnetic agarose beads 1 h at 4°C; immunoblot; in some panels GSK3β WT or K85A coexpressed (Figs. 2 C, 3 A, 5 A, 7 A, S1 C, S4 B)

In the case of endogenous VAPB (COS-7 cells), the binding was “binds”.
